According to patent publication US9421204B2, “Oligomer modified diaromatic substituted compounds” (priority 2010, dated 2016):

Assay: in vitro
Details: human, Caco-2, Papp
Method: The objective of this study was to determine the bidirectional Caco-2 permeability of test compounds. Caco-2 monolayers were grown to confluence on collagen-coated, microporous, polycarbonate membranes in 12-well Costar Transwell® plates. Details of the plates and their certification are shown below. The permeability assay buffer for the donor chambers was Hanks Balanced Salt Solution containing 10 mM HEPES and 15 mM glucose (HBSSg) at a pH of 7.4. The buffer in the receiver chambers also contained 1% bovine serum albumin (BSA). The dosing solution concentrations were 10 μM in the assay buffer. Cell monolayers were dosed on the apical side (A to-B) or basolateral side (B-to-A) and incubated at 37° C. with 5% CO2 in a humidified incubator. After 2 hours, aliquots were taken from the receiver and donor chambers. Each determination was performed in duplicate. The lucifer yellow flux was also measured for each monolayer to ensure no damage was inflicted to the cell monolayers during the flux period. All samples were assayed by LC/MS/MS using electrospray ionization.

Papp: 0.26 ×10⁻⁶ cm/s
SMILES: CC(C)NCC(O)COc1ccc(CC(N)=O)cc1 (stereo not shown) [Atenolol]
